Measurements: patent publication US20240181000A1, “LGG-DERIVED PEPTIDES AND METHODS OF USE THEREOF” (Ohio State Innovation Foundation, priority 2021, published 2024)
At least one peptide structure holds a part that was inferred or is arguable (an end, a ring closure or a residue). Marks after values point to notes of the source that are not given here. No end group written: not given here.

How the values were obtained:
[1] = system: cecal microbiota; test: Cecal microbiome analysis (peptides, APEC infected); assay type: in vivo, chickens
Method: Cecal microbiome analysis: To investigate the impact of peptides (P1, P2, and P3) treatment (50 mg/kg and 100 mg/kg) on cecal microbiome of chickens, 16S rRNA based metagenomic study was conducted as previously described. DNA was extracted from 0.2 g of cecal contents using PureLink™ Microbiome DNA Purification Kit (Thermofisher Scientific) and treated with RNase A (2 μL of 100 mg/mL solution per sample; Qiagen) to remove the RNA. DNA quantity and quality were measured using NanoDrop 2000c Spectrophotometer (Thermo Fisher Scientific). The extracted DNA samples were subjected to 16S rRNA V4-V5 sequencing at molecular and cellular imaging center (MCIC), Ohio Agricultural Research and Development Center (OARDC) (mcic.osu.edu/genomics/illumina-sequencing). Amplicon libraries were prepared using IFU KAPA HiFi HotStart ReadyMixPCR Kit (Roche) and PCR clean-up was performed using Agencourt AMPure XP beads (BECKMAN COULTER Life Sciences). Nextera XT DNA Library Preparation Kit (Illumina) was used to generate Illumina library and sequencing was performed using Illumina MiSeq platform generating paired end 300-bp reads.
For the metagenomic analysis, QIIME (Quantitative Insights into Microbial Ecology) 2 bioinformatics platform (qiime2.org/) was used. Quality control of the raw reads was performed using FastQC 0.11.8 (Babraham Bioinformatics). Trimmomatic-0.33 was used to trim the adaptor and other illumina-specific sequences (www.usadellab.org/cms/?page=trimmomatic). The trimmed sequences (fastq.gz) were then imported into the QIIME 2 as a manifest file format (PairedEndManifestPhred33V2). The feature table construction and additional filtering of the sequences was performed using DADA2. The taxonomic analysis was performed using Naive Bayes classifiers trained on the Silva 132 99% OTUs (silva-132-99-nb-classifier.qza) database. The phylogenetic diversity was analyzed using align-to-tree-mafft-fasttree pipeline and alpha ([…]) were analyzed using core-metrics-phylogenetic pipeline (docs.qiime2.org/2019.7/tutorials/moving-pictures/). The statistical difference (P<0.05) in the taxonomic composition between the peptides treated, PC, and NC groups was determined using Mann-Whitney U test. The alpha and beta diversity were analyzed using Kruskal-Wallis and PERMANOVA tests (P<0.05), respectively.

[2] = system: intracellular APEC O78 in HD11 cells; test: Intracellular survival of APEC in HD11 cells (gentamicin protection assay); assay type: cell-based, chicken
Method: Effect of peptides on intracellular survival of APEC in HD11 cells: To determine the efficacy of peptides (P1, P2, and P3) against intracellular APEC, gentamicin protection assay was conducted in HD 11 (chicken macrophage) cells as described previously. The cells were cultured in Iscove's Modified Dulbecco's Media (IMDM) supplemented with 10% fetal bovine serum (FBS), 2 mM L-glutamine and 2% penicillin-streptomycin (P/S) solution and maintained at 37° C. incubator with 5% C02. Cells (approximately 10^4 cells/well) were seeded in a 96-well cell culture plate in 100 μL culture media and incubated for 36 h prior to using for the assay. Following incubation, the cells were replenished with 100 μL of fresh cell culture media with no FBS and antibiotic and incubated until infection (2 h). For the infection, the overnight grown APEC O78 was subcultured to mid-logarithmic phase, centrifuged, washed twice with PBS, adjusted to 1×10^7 CFU/mL. One-hundred microliters of the APEC suspension (MOI: 100) was added to each well of the 96-well plate and incubated for 1 h to allow the invasion. The cells were washed twice and treated with gentamicin (150 μg/mL) to kill the extracellular APEC. The cells were treated with peptides at 12 mM, 15 mM, and 18 mM concentrations. Infected but not treated, infected and DMSO-treated, and non-infected and not treated cells were used as controls. Three independent experiments were conducted.

VHTAPK [Peptide P3, VHTAPK]
Beta-diversity (weighted unifrac) vs NC chickens ([1]; 50 mg/kg): significantly (P<0.01) different
Beta-diversity (weighted unifrac) vs NC chickens ([1]; 100 mg/kg): significantly (P<0.01) different
Relative abundance Clostridia ([1]; class, 50 mg/kg, from 33.28%): 71.46%
Relative abundance Bacteroidia ([1]; class, 50 mg/kg, from 38.09%): 4.78%
Relative abundance Clostridia ([1]; class, 100 mg/kg): 46.99%
Relative abundance Bacilli ([1]; class, 100 mg/kg, PC 7.28%): 22.17%
Relative abundance Lachnospiraceae ([1]; family, 50 mg/kg, from 30.95%): 62.09%
Relative abundance Bacteroidaceae ([1]; family, 50 mg/kg, from 56.39%): 4.78%
Relative abundance Lachnospiraceae ([1]; family, 100 mg/kg): 36.58%
Relative abundance Lactobacillaceae ([1]; family, 100 mg/kg): 19.61%
Relative abundance (%) Anaerotruncus ([1]; genus, 50-mg/kg dose): 0.00%
Relative abundance (%) Bacteroides ([1]; genus, 50-mg/kg dose): 4.79^a,b %
Relative abundance (%) Clostridioides ([1]; genus, 50-mg/kg dose): 0.00%
Relative abundance (%) Clostridium sensu stricto 1 ([1]; genus, 50-mg/kg dose): 0.77%
Relative abundance (%) Enterococcus ([1]; genus, 50-mg/kg dose): 1.92%
Relative abundance (%) Erysipelatoclostridium ([1]; genus, 50-mg/kg dose): 6.22%
Relative abundance (%) Flavonifractor ([1]; genus, 50-mg/kg dose): 1.39%
Relative abundance (%) Lachnospiraceae (uncultured) ([1]; genus, 50-mg/kg dose): 7.40%
Relative abundance (%) Oscillibacter ([1]; genus, 50-mg/kg dose): 0.71%
Relative abundance (%) Pediococcus ([1]; genus, 50-mg/kg dose): 2.88%
Relative abundance (%) Ruminiclostridium 5 ([1]; genus, 50-mg/kg dose): 0.00%
Relative abundance (%) Ruminiclostridium 9 ([1]; genus, 50-mg/kg dose): 2.14%
Relative abundance (%) Ruminococcus gnavus group ([1]; genus, 50-mg/kg dose): 0.00%
Relative abundance (%) Ruminococcus torques group ([1]; genus, 50-mg/kg dose): 13.82%
Relative abundance (%) Anaerotruncus ([1]; genus, 100-mg/kg dose): 1.65%
Relative abundance (%) Bacillus ([1]; genus, 100-mg/kg dose): 0.42%
Relative abundance (%) Blautia ([1]; genus, 100-mg/kg dose): 1.07%
Relative abundance (%) Butyricicoccus ([1]; genus, 100-mg/kg dose): 0.19^b %
Relative abundance (%) Caproiciproducens ([1]; genus, 100-mg/kg dose): 0.34%
Relative abundance (%) Clostridiales vadin BB60 group ([1]; genus, 100-mg/kg dose): 0.41^a %
Relative abundance (%) Clostridioides ([1]; genus, 100-mg/kg dose): 0.73%
Relative abundance (%) Clostridium innocuum group ([1]; genus, 100-mg/kg dose): 0.00^b %
Relative abundance (%) Clostridium sensu stricto 1 ([1]; genus, 100-mg/kg dose): 0.21%
Relative abundance (%) Enterococcus ([1]; genus, 100-mg/kg dose): 2.14%
Relative abundance (%) Erysipelatoclostridium ([1]; genus, 100-mg/kg dose): 14.78^b %
Relative abundance (%) Eubacterium coprostanoligenes group ([1]; genus, 100-mg/kg dose): 0.21%
Relative abundance (%) Flavonifractor ([1]; genus, 100-mg/kg dose): 1.25%
Relative abundance (%) Lachnospiraceae (uncultured) ([1]; genus, 100-mg/kg dose): 10.38^b %
Relative abundance (%) Lactobacillus ([1]; genus, 100-mg/kg dose): 19.62^a,b %
Relative abundance (%) Lactococcus ([1]; genus, 100-mg/kg dose): 0.00%
Relative abundance (%) Oscillibacter ([1]; genus, 100-mg/kg dose): 0.76%
Relative abundance (%) Paenibacillus ([1]; genus, 100-mg/kg dose): 0.00%
Relative abundance (%) Pediococcus ([1]; genus, 100-mg/kg dose): 0.00%
Relative abundance (%) Ruminiclostridium 5 ([1]; genus, 100-mg/kg dose): 0.00%
Relative abundance (%) Ruminiclostridium 9 ([1]; genus, 100-mg/kg dose): 1.52^a,b %
Relative abundance (%) Ruminococcacede UCG-005 ([1]; genus, 100-mg/kg dose): 0.00%
Relative abundance (%) Ruminococcus torques group ([1]; genus, 100-mg/kg dose): 8.44%
Relative abundance (%) Sellimonas ([1]; genus, 100-mg/kg dose): 1.60^a %
Relative abundance (%) UBA1819 ([1]; genus, 100-mg/kg dose): 0.00%
Relative abundance (%) Weissella ([1]; genus, 100-mg/kg dose): 0.00%
Relative abundance Firmicutes ([1]; phylum, 50 mg/kg, from 39.54%): 82.47%
Relative abundance Bacteroidetes ([1]; phylum, 50 mg/kg, from 56.39%): 4.78%
Intracellular APEC (log CFU/mL) ([2]; 12 mM, untreated 3.75 ± 0.10): 3.62 ± 0.06 log CFU/mL
Intracellular APEC (log CFU/mL) ([2]; 15 mM): 2.75 ± 0.31 log CFU/mL
Intracellular APEC (log CFU/mL) ([2]; 18 mM): No intracellular APEC was recovered
Intracellular APEC (log CFU/mL) ([2]; 18 mM, listed as P-3): 0.00 ± 0.00 log CFU/mL
